Assay results reported in PMC5172368.

Columns and labels:
[1] = molecular target: ORP2 HFD peptide (oocyst rupture protein 2, aa 7-156) with N-terminal poly-His tag (Plasmodium berghei); experiment: pull-down; Ni-NTA agarose beads with cleared E. coli lysate co-expressing His-ORP2 and S-tagged ORP1; overnight at 4 °C; 500 mM NaCl, 150 mM Tris pH 8.0, 10% glycerol, 10 mM imidazole; washes with 300 mM NaCl; elution with 300 mM imidazole; western blot with antibodies against the tags
[2] = molecular target: ORP1 HFD peptide (oocyst rupture protein 1, aa 750-872) with C-terminal S-tag (Plasmodium berghei); experiment: co-IP; antibody against the S-tag on Protein G Sepharose beads incubated with cleared E. coli lysate containing both peptides; 300 mM NaCl, 50 mM Tris pH 7.4, 1% Triton X-100, 1 mM PMSF; His-ORP2 detected with anti-His-6 antibody on western blot

| binding [1] | binding [2] | Substance |
| --- | --- | --- |
| binds |  | ORP1 HFD peptide (oocyst rupture protein 1, aa 750-872) with C-terminal S-tag (from UniProt A0A509AJ88) (domain or fragment) |
|  | binds | ORP2 HFD peptide (oocyst rupture protein 2, aa 7-156) with N-terminal poly-His tag (from UniProt A0A509AVP1) (domain or fragment) |

These are yes or no findings as the source states them, for the method shown. In cells and extracts the contact can be indirect. Binding calls can cover weak binding; strength is not graded here.
